One may read the Kd as the constant that tells how readily two partners part at equilibrium.

Data set [1] concerns the target T1, HvRPA3 full length (Haloferax volcanii DS2 (wild-type)) (UniProt D4GZS1).
T1 sequence (looked up): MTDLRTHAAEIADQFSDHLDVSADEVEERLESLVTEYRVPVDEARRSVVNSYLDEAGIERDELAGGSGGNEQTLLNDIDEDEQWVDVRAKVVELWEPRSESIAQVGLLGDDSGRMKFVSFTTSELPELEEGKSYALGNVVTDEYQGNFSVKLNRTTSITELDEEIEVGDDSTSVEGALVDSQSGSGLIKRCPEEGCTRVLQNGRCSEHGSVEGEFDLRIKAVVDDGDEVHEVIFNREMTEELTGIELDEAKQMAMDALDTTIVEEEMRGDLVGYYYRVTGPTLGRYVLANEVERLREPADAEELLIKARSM
The experiment in a line: analytical SEC. To be noted: 0.2 M KCl; SEC: 50 mM HEPES pH 7.0, 0.2, 1 or 3 M KCl; recombinant protein; residues 1-311; protein details: N-terminal 6xHis; single-stranded DNA.

Data set [2] addresses T2, HvRPA3-NTD (OB-fold) (Haloferax volcanii DS2 (wild-type)) (UniProt D4GZS1).
T2 sequence (looked up): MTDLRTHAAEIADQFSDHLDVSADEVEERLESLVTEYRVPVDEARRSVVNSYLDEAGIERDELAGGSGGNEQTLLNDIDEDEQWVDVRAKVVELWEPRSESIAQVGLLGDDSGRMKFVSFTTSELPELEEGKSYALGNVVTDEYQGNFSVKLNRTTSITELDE
The data set can be described thus: analytical SEC. To be noted: 0.2 M KCl; SEC: 50 mM HEPES pH 7.0, 0.2, 1 or 3 M KCl; recombinant protein; residues 1-163; protein details: N-terminal 6xHis; single-stranded DNA.

Data set [3] deals with T2, HvRPA3-NTD (OB-fold) (Haloferax volcanii DS2 (wild-type)). The experiment in a line: fluorescence anisotropy. To be noted: 3 M KCl, Hill 1.1 ± 0.2; FA: 50 mM HEPES pH 7.0, 10% glycerol, 0.03% BSA, 20 nM Cy5-oligo, 0.2, 1 or 3 M KCl, room temperature 10 min; recombinant protein; residues 1-163; protein details: N-terminal 6xHis; label: 5' Cy5; single-stranded DNA. Background: Polarisation of emitted light reports the rotation of a fluorescent probe.

For part of these data: A negative result means that nothing was seen under these conditions. Tags and fusion partners may be left off the protein sequences shown. For part of these data: The exact form of at least one protein or probe is not confirmed.

With GCGTGTGTGGTGGTGTGC [18mer ssDNA (SEC)], the binding result in data set [1] and in data set [2] was “no binding” throughout.
Regarding “GCGTGTGTGGTGGTGTGC [Cy5-18mer ssDNA (FA)]”, the Kd in data set [3] is 212 nM.

Values taken from article PMC3438722, “DNA Binding in High Salt: Analysing the Salt Dependence of Replication Protein A3 from the Halophile Haloferax volcanii” (Archaea, 2012).
